No constants are given. Whether binding was seen depends on the method and setting. In cells and extracts the contact can be indirect. Some entries that bind do so weakly or less than the wild type.
Target: T1, Tribbles homolog 2 (human (endogenous in HepG2)) (UniProt Q92519)
T1 sequence: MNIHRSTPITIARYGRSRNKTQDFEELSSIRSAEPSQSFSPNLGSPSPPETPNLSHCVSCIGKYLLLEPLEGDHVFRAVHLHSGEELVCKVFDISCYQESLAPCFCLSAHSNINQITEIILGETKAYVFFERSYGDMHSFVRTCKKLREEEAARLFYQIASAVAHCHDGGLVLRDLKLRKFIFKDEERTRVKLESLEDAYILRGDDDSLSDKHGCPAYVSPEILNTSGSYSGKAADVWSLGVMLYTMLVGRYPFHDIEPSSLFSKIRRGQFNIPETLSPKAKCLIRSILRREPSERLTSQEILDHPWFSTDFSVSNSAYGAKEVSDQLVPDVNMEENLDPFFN
Experiment: co-IP; IP of TRIB2 (anti-TRIB2 1:200, protein A/G magnetic beads, overnight at 4 °C, five washes with cell lysis buffer) from HepG2 lysate; immunoblot for KEAP1

The chains behind the UniProt entries cited, without tags or fusion partners.
UniProt Q14145: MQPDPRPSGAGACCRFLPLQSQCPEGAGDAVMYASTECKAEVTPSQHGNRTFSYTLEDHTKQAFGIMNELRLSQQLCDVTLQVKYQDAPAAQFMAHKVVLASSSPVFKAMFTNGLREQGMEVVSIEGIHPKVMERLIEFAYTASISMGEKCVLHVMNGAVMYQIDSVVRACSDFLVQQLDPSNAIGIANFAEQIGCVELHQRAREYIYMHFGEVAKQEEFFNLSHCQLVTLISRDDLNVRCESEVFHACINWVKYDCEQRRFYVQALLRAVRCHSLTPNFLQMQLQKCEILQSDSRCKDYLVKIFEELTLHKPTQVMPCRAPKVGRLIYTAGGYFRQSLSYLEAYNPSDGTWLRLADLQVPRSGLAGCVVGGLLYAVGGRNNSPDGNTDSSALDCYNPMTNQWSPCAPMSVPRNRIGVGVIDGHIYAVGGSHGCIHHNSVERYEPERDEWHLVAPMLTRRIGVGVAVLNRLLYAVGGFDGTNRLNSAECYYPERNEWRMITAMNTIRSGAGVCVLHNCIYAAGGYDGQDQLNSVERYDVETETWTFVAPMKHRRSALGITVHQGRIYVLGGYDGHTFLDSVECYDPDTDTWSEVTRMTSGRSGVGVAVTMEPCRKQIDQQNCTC

binding: binds
Substance: KEAP1 (from UniProt Q14145 1-624)

Reference: PMC12750601
